Data as given in PubChem BioAssay AID743121 (NCATS, 2013).

Purpose: 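Partners whose loss is lethal together with topoisomerase I blockade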 (primary screen)
System: MDA-MB-231 cells, a human breast cancer line
Reagents: single siRNA against human genes, 20 nM siRNA (0.8 pmol per well)
Time to read-out: 120 h (drug added 48 h after transfection, read 72 h later)
Treatment: camptothecin 20 nM (about EC30) for 72 h; vehicle 0.1% DMSO in parallel plates
Detection: 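Cell viability by ATP luminescence (CellTiter-Glo) as % of non-targeting siRNA wells, and the log2 ratio of viability without drug over viability with camptothecin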
Scale: log2 vehicle/camptothecin viability: higher = stronger sensitisation to camptothecin; viability with camptothecin: higher = more viable cells
Units: viability with camptothecin in % of control
Call rule: 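Each gene scored by redundant siRNA activity (RSA) over its individual siRNA ratios; a gene is called active at p < 0.001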
In all, the deposit lists about 26,000 reagents; this is a random part of them. In the full data, 167 (0.63%) got an active call. 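Calls are per gene from RSA p-values that are not deposited; an individual active-marked siRNA can sensitise only weakly.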 Not all columns of the deposit are shown.

The opening 3 entries as a preview:
{"Gene": "LYN (GeneID 4067)", "PubChem SID": "SID164374379", "log2 vehicle/camptothecin viability": -0.187, "viability with camptothecin": 54.2, "activity call": "inactive"}
{"Gene": "LYN (GeneID 4067)", "PubChem SID": "SID164374380", "log2 vehicle/camptothecin viability": -0.496, "viability with camptothecin": 103, "activity call": "inactive"}
{"Gene": "LYN (GeneID 4067)", "PubChem SID": "SID164374382", "log2 vehicle/camptothecin viability": -0.158, "viability with camptothecin": 74.6, "activity call": "inactive"}

Main list, from the start:
{"Gene": "LYN (GeneID 4067)", "PubChem SID": "SID164374379", "log2 vehicle/camptothecin viability": -0.187, "viability with camptothecin": 54.2, "activity call": "inactive"}
{"Gene": "LYN (GeneID 4067)", "PubChem SID": "SID164374380", "log2 vehicle/camptothecin viability": -0.496, "viability with camptothecin": 103, "activity call": "inactive"}
{"Gene": "LYN (GeneID 4067)", "PubChem SID": "SID164374382", "log2 vehicle/camptothecin viability": -0.158, "viability with camptothecin": 74.6, "activity call": "inactive"}
{"Gene": "LYN (GeneID 4067)", "PubChem SID": "SID164374384", "log2 vehicle/camptothecin viability": -0.194, "viability with camptothecin": 53.2, "activity call": "inactive"}
{"Gene": "SFRP4 (GeneID 6424)", "PubChem SID": "SID164387675", "log2 vehicle/camptothecin viability": 0.607, "viability with camptothecin": 67.2, "activity call": "inactive"}
{"Gene": "SFRP4 (GeneID 6424)", "PubChem SID": "SID164387676", "log2 vehicle/camptothecin viability": 0.19, "viability with camptothecin": 79, "activity call": "inactive"}
{"Gene": "SFRP4 (GeneID 6424)", "PubChem SID": "SID164387679", "log2 vehicle/camptothecin viability": 0.0495, "viability with camptothecin": 83.6, "activity call": "inactive"}
{"Gene": "GPRC6A (GeneID 222545)", "PubChem SID": "SID164593187", "log2 vehicle/camptothecin viability": -0.25, "viability with camptothecin": 74.3, "activity call": "inactive"}
{"Gene": "GPRC6A (GeneID 222545)", "PubChem SID": "SID164593188", "log2 vehicle/camptothecin viability": 0.0981, "viability with camptothecin": 83.3, "activity call": "inactive"}
{"Gene": "GPRC6A (GeneID 222545)", "PubChem SID": "SID164593191", "log2 vehicle/camptothecin viability": -0.665, "viability with camptothecin": 63.4, "activity call": "inactive"}
{"Gene": "AVPR1B (GeneID 553)", "PubChem SID": "SID164354898", "log2 vehicle/camptothecin viability": -0.0758, "viability with camptothecin": 107, "activity call": "inactive"}
{"Gene": "AVPR1B (GeneID 553)", "PubChem SID": "SID164354900", "log2 vehicle/camptothecin viability": -0.512, "viability with camptothecin": 66.7, "activity call": "inactive"}
{"Gene": "AVPR1B (GeneID 553)", "PubChem SID": "SID164354902", "log2 vehicle/camptothecin viability": -0.173, "viability with camptothecin": 29.1, "activity call": "inactive"}
{"Gene": "AVPR1B (GeneID 553)", "PubChem SID": "SID164354903", "log2 vehicle/camptothecin viability": -0.255, "viability with camptothecin": 43.7, "activity call": "inactive"}
{"Gene": "CD247 (GeneID 919)", "PubChem SID": "SID164357062", "log2 vehicle/camptothecin viability": -0.328, "viability with camptothecin": 102, "activity call": "inactive"}
{"Gene": "CD247 (GeneID 919)", "PubChem SID": "SID164357064", "log2 vehicle/camptothecin viability": 0.0445, "viability with camptothecin": 59.7, "activity call": "inactive"}
{"Gene": "CD247 (GeneID 919)", "PubChem SID": "SID164357065", "log2 vehicle/camptothecin viability": -0.163, "viability with camptothecin": 67.4, "activity call": "inactive"}
{"Gene": "CD247 (GeneID 919)", "PubChem SID": "SID164357066", "log2 vehicle/camptothecin viability": -0.265, "viability with camptothecin": 72.3, "activity call": "inactive"}
{"Gene": "NPAS1 (GeneID 4861)", "PubChem SID": "SID164378283", "log2 vehicle/camptothecin viability": 0.346, "viability with camptothecin": 25.7, "activity call": "inactive"}
{"Gene": "NPAS1 (GeneID 4861)", "PubChem SID": "SID164378284", "log2 vehicle/camptothecin viability": -0.0436, "viability with camptothecin": 82.5, "activity call": "inactive"}
{"Gene": "NPAS1 (GeneID 4861)", "PubChem SID": "SID164378285", "log2 vehicle/camptothecin viability": -0.24, "viability with camptothecin": 84, "activity call": "inactive"}
{"Gene": "NPAS1 (GeneID 4861)", "PubChem SID": "SID164378288", "log2 vehicle/camptothecin viability": -0.254, "viability with camptothecin": 64.7, "activity call": "inactive"}
{"Gene": "AKR7L (GeneID 246181)", "PubChem SID": "SID164603944", "log2 vehicle/camptothecin viability": -0.11, "viability with camptothecin": 108, "activity call": "inactive"}
{"Gene": "AKR7L (GeneID 246181)", "PubChem SID": "SID164603945", "log2 vehicle/camptothecin viability": -0.215, "viability with camptothecin": 119, "activity call": "inactive"}
{"Gene": "AKR7L (GeneID 246181)", "PubChem SID": "SID164603946", "log2 vehicle/camptothecin viability": -0.0811, "viability with camptothecin": 101, "activity call": "inactive"}
{"Gene": "AKR7L (GeneID 246181)", "PubChem SID": "SID164603947", "log2 vehicle/camptothecin viability": -0.57, "viability with camptothecin": 31, "activity call": "inactive"}
